# Structures can show the parent of a compound that is named as a salt. ± gives the standard deviation of the averaged measurements. The list shows a part of the results. Repeats are few or missing, and single values can be far off.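 Test system: a mixed pool of 41 HAP1 clones in which 61 cancer-associated proteins carry fluorescent tags inserted into introns, and each clone is identified from its image pattern. Read-outs are compared with DMSO-treated control wells. The BRD4 degrader dBET6 served as the positive control.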
# Protein sequences, listed by entry. Tags and fused reporters are not part of them.
# UniProt O14980, whole entry: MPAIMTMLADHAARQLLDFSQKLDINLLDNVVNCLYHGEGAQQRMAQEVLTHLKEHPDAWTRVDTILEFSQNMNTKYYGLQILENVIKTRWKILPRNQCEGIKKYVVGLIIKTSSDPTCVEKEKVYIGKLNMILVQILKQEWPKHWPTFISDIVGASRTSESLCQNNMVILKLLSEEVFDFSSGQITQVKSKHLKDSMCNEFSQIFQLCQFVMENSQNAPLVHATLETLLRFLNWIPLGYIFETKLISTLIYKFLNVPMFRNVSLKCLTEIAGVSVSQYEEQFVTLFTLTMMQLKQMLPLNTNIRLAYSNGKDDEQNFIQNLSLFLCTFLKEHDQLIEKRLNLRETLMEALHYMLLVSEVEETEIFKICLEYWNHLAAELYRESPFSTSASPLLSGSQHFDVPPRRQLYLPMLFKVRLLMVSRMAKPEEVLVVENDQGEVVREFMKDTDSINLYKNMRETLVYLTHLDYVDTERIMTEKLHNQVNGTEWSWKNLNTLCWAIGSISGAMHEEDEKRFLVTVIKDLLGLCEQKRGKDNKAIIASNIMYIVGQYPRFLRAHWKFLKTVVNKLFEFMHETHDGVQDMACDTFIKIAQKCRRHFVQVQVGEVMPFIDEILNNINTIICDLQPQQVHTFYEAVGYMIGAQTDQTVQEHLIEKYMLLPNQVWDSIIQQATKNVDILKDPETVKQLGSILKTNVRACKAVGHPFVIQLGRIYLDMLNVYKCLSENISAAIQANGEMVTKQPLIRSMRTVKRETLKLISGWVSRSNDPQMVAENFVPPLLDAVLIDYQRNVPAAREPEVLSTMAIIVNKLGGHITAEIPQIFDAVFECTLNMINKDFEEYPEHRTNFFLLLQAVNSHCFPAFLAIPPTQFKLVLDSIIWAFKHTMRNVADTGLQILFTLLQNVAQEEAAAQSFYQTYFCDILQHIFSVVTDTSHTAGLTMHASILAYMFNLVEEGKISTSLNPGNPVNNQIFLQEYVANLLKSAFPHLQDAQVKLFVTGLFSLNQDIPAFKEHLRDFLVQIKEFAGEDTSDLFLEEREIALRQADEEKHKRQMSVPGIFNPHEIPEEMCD
# Biological target: XPO1 (intron 15 mScarlet tag, HAP1) (UniProt O14980)
# Experiment: XPO1 fluorescence intensity change vs DMSO (log2 fold change); higher = more XPO1 protein
# Details: 6 h
row,SMILES,XPO1 fluorescence intensity change (log2)
1,Cn1c(=O)c2nc[nH]c2n(C)c1=O [Theophylline] (10 µM),0.117
2,CCN1CC(CCN2CCOCC2)C(c2ccccc2)(c2ccccc2)C1=O (centres undefined) [Doxapram] (10 µM),-0.135
3,N=C(N)c1ccc(OCCCCCOc2ccc(C(=N)N)cc2)cc1 [Pentamidine] (10.00031669 µM),-0.00993
4,CO[C@H]1O[C@@H]2O[C@@]3(C)CC[C@H]4[C@H](C)CC[C@@H]([C@H]1C)[C@@]24OO3 [Artemether] (10 µM),-0.0933
5,Clc1ccc(C(c2ccccc2Cl)C(Cl)Cl)cc1 (centres undefined) [Mitotane] (10 µM),-0.26
6,CO[C@H]1/C=C/O[C@@]2(C)Oc3c(C)c(O)c4c(c3C2=O)C2=NC3(CCN(CC(C)C)CC3)NC2=C(NC(=O)/C(C)=C\C=C\[C@H](C)[C@H](O)[C@@H](C)[C@@H](O)[C@@H](C)[C@H](OC(C)=O)[C@@H]1C)C4=O [Rifabutin] (9.99925 µM),-0.0963
7,CS(=O)(=O)CCNCc1ccc(-c2ccc3ncnc(Nc4ccc(OCc5cccc(F)c5)c(Cl)c4)c3c2)o1 [Lapatinib] (20 µM),0.113
8,COc1cccc2c1C(=O)c1c(O)c3c(c(O)c1C2=O)C[C@@](O)(C(=O)CO)C[C@@H]3O[C@H]1C[C@H](N)[C@H](O)[C@H](C)O1 [Doxorubicin] (0.09215 µM),0.149
9,CCN(CC)C(=S)S [Sodium Diethyldithiocarbamate Trihydrate] (10 µM),0.0296
10,NS(=O)(=O)Cc1noc2ccccc12 [Zonisamide] (10 µM),0.126
11,CCCCC(F)(F)[C@@]1(O)CC[C@H]2[C@@H](CC(=O)[C@@H]2CCCCCCC(=O)O)O1 [Lubiprostone] (10 µM),0.076
12,COC(=O)Nc1nc2cc(C(=O)c3ccccc3)ccc2[nH]1 [Mebendazole] (9.99917 µM),-0.141
13,CCCCN1C[C@H](O)[C@@H](O)[C@H](O)[C@H]1CO [Miglustat (hydrochloride)] (10 µM),0.122
14,COC(=O)[C@H](c1ccccc1Cl)N1CCc2sccc2C1 [Clopidogrel] (9.99986 µM),0.0798
15,CC(C)(Sc1cc(C(C)(C)C)c(O)c(C(C)(C)C)c1)Sc1cc(C(C)(C)C)c(O)c(C(C)(C)C)c1 [Probucol] (10 µM),0.0161
16,COc1cc2/c(=N/c3ccc(Br)cc3F)nc[nH]c2cc1OCC1CCN(C)CC1 [Vandetanib] (20 µM),0.198
17,COC(=O)C1=C(C)NC(C)=C(C(=O)OCC(C)C)C1c1ccccc1[N+](=O)[O-] (centres undefined) [Nisoldipine] (9.99911 µM),-0.0526
18,CCCCN(CCCC)CC(O)c1cc(Cl)cc2c1-c1ccc(Cl)cc1/C2=C/c1ccc(Cl)cc1 (centres undefined) [Lumefantrine] (10 µM),0.0223
19,Nc1c2c(nc3ccccc13)CCCC2 [Tacrine] (9.99926 µM),0.0826
20,Cc1[nH]c2ccccc2c1CCNCc1ccc(/C=C/C(=O)NO)cc1 [Panobinostat] (20 µM),0.0883

row,SMILES,XPO1 fluorescence intensity change (log2)
1,CC(=O)OC[C@H]1O[C@@H]([S-])[C@H](OC(C)=O)[C@@H](OC(C)=O)[C@@H]1OC(C)=O.CCP(CC)CC.[Au+] [Auranofin] (10 µM),0.0463
2,C[C@]1(c2nc3c(C(N)=O)cccc3[nH]2)CCCN1 [Veliparib] (10 µM),0.0346
3,Cc1nc(Nc2ncc(C(=O)Nc3c(C)cccc3Cl)s2)cc(N2CCN(CCO)CC2)n1 [Dasatinib] (0.0213961 µM),0.0371
4,NC(=O)OCC(COC(N)=O)c1ccccc1 [Felbamate] (10 µM),-0.00118
5,NC[C@@H]1O[C@H](O[C@H]2[C@@H](O)[C@H](O[C@@H]3[C@@H](O)[C@H](N)C[C@H](N)[C@H]3O[C@H]3O[C@H](CO)[C@@H](O)[C@H](O)[C@H]3N)O[C@@H]2CO)[C@H](N)[C@@H](O)[C@@H]1O [Paromomycin] (10 µM),-0.109
6,CC(c1cc2ccccc2s1)N(O)C(N)=O (centres undefined) [Zileuton] (10 µM),-0.164
7,CN[C@@H]1C[C@H]2O[C@@](C)([C@@H]1OC)n1c3ccccc3c3c4c(c5c6ccccc6n2c5c31)C(=O)N[C@H]4O [UCN-01 (7-hydroxystaurosporine)] (10 µM),-0.116
8,CC1(C)O[C@@H]2[C@@H](CO[C@@]3(COS(N)(=O)=O)OC(C)(C)O[C@@H]23)O1 [Topiramate] (10 µM),-0.228
9,C[C@H](N[C@@H](CCc1ccccc1)C(=O)O)C(=O)N1CCC[C@H]1C(=O)O [Enalaprilat] (9.99909 µM),-0.0619
10,Nc1cc(N2CCCCC2)nc(N)[n+]1[O-] [Minoxidil] (9.95605 µM),-0.0141 ± 0.096
11,CN1C(CCl)Nc2cc(Cl)c(S(N)(=O)=O)cc2S1(=O)=O (centres undefined) [Methyclothiazide] (9.99974 µM),0.194
12,CC(C)C[C@H](NC(=O)[C@H](CCc1ccccc1)NC(=O)CN1CCOCC1)C(=O)N[C@@H](Cc1ccccc1)C(=O)N[C@@H](CC(C)C)C(=O)[C@@]1(C)CO1 [Carfilzomib] (0.00117 µM),-0.193 ± 0.3
13,CN[C@H]1CC[C@@H](c2ccc(Cl)c(Cl)c2)c2ccccc21 [Sertraline] (9.99956 µM),0.0957
14,NC(=O)N[C@@H](CCC(=O)O)C(=O)O [Carglumic Acid] (10 µM),0.128
15,CC(=O)O[C@]1(C(C)=O)CC[C@H]2[C@@H]3CCC4=CC(=O)CCC4=C3[C@@H](c3ccc(N(C)C)cc3)C[C@@]21C [Ulipristal Acetate] (9.99909 µM),-0.16
16,O=C(O)C1(C(=O)O)CCC1.[NH2-].[NH2-].[Pt+2] [Carboplatin] (20 µM),0.172
17,CC(=O)O[C@@]12CO[C@@H]1C[C@H](O)[C@@]1(C)C(=O)[C@H](O)C3=C(C)[C@@H](OC(=O)[C@H](O)[C@@H](NC(=O)OC(C)(C)C)c4ccccc4)C[C@@](O)([C@@H](OC(=O)c4ccccc4)[C@H]21)C3(C)C [Docetaxel] (0.00463667 µM),0.0112
18,COc1cc(Cc2cnc(N)nc2N)cc(OC)c1OC [Trimethoprim] (10 µM),0.113
19,OC(c1cc(C(F)(F)F)nc2c(C(F)(F)F)cccc12)C1CCCCN1 (centres undefined) [Mefloquine] (10 µM),0.0316

# Single values from above:
# XPO1 fluorescence intensity change (log2), CC(C)C[C@H](NC(=O)[C@H](CCc1ccccc1)NC(=O)CN1CCOCC1)C(=O)N[C@@H](Cc1ccccc1)C(=O)N[C@@H](CC(C)C)C(=O)[C@@]1(C)CO1 [Carfilzomib] (0.00117 µM) is entered as -0.193 ± 0.3
# XPO1 fluorescence intensity change (log2), CN[C@H]1CC[C@@H](c2ccc(Cl)c(Cl)c2)c2ccccc21 [Sertraline] (9.99956 µM) is entered as 0.0957
# XPO1 fluorescence intensity change (log2), CCN1CC(CCN2CCOCC2)C(c2ccccc2)(c2ccccc2)C1=O (centres undefined) [Doxapram] (10 µM) is entered as -0.135

# Reference: the supplement of paper PMC11098740
